In PubChem BioAssay AID1671190 (National Center for Advancing Translational Sciences (NCATS), 2021):
In all, about 580,000 compounds went through this assay and about 6,100 (1.1%) were called active. This list was built around the results that the source calls inconclusive (neither active nor inactive); the mix of calls is not that of the screen. The call rests on the fitted dose curve; in most records, active means well fitted inhibition curve with a large enough effect; inconclusive means small, poorly fitted or top-dose-only effect, or another doubt; inactive means no such curve, though single readings can be large or run the other way. Where the call is inconclusive, the potency comes from a doubtful curve fit.

By UniProt entry, the sequences of proteins in these tests, tags left out. Where a name states a change or a piece, a line headed by the entry shows the natural chain unless it says otherwise.
UniProt P18054: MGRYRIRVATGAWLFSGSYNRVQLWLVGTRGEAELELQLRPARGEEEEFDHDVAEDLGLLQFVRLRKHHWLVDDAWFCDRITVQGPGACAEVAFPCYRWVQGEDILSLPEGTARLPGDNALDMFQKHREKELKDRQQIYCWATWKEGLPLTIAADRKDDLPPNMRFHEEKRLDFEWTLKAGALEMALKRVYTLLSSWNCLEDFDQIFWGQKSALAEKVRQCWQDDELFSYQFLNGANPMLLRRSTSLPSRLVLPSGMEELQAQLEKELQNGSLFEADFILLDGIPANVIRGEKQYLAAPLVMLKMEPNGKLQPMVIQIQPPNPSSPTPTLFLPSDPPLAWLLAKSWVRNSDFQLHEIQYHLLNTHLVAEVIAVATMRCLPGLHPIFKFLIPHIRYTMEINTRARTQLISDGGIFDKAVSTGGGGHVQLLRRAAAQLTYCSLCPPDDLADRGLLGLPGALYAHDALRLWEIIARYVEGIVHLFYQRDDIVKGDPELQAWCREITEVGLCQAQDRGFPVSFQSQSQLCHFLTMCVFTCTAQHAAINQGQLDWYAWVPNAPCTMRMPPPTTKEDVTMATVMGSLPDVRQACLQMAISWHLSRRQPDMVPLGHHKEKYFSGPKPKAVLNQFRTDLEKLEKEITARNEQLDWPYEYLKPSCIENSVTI

biological target: Polyunsaturated fatty acid lipoxygenase ALOX12 (Homo sapiens) (UniProt P18054); assay: Primary qHTS assay for inhibitors of human arachidonate 12S-lipoxygenase (ALOX12): Round 2; conditions: purified 12hLO, xylenol orange hydroperoxide absorbance; series mostly up to 108 µM
Method in brief: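 Purified human 12hLO (150 nM final) in 25 mM Hepes, 0.01% Triton X-100, pH 7.0 was preincubated 15 min at room temperature with compound. Then 40 uM arachidonic acid was added, 30 min. Hydroperoxide was read by Fe-XO absorbance ratio 573/405 nm.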
Potency means the concentration at half of the fitted maximal effect.

Structure (SMILES)	Potency
COc1ccc2ncc(S(=O)(=O)c3ccccc3)c(N3CCC4(CC3)OCCO4)c2c1	inconclusive: 44.7 µM [inhibitor, partial curve, poor fit]
CC(C)(S)[C@@H](N)C(=O)O	inconclusive: 0.794 µM [inhibitor, full curve, poor fit]
O=[N+]([O-])c1cccc(C(=NCc2ccccc2)NO)c1	inconclusive: 25.1 µM [inhibitor, partial curve, poor fit]
CCN(CC(=O)Nc1c(C(=O)OC)[nH]c2ccc(Cl)cc12)c1ccc2c(c1)OCO2	inconclusive: 100 µM [inhibitor, partial curve, poor fit]
COc1ccc(Cc2nc3c4c(C)c(C)n(CC(C)C)c4ncn3n2)cc1OC	inactive
O=C(Cn1nc2c(cc1=O)CCCC2)N1CCc2c([nH]c3ccccc23)C1	inconclusive: 31.6 µM [inhibitor, partial curve, poor fit]
COc1cc(NC(=O)c2ccc([N+](=O)[O-])o2)ccc1NC(=O)c1ccco1	inactive
COc1ccc(CNC(=O)C[C@@H]2CCNC[C@@H]2Cc2cc(-c3ccc(C(C)(C)C)cc3)on2)cc1OC	inconclusive: 25.1 µM [inhibitor, full curve]
CC(C)(C)C(=O)COC(=O)c1nn(-c2ccccc2)c(=O)c2ccccc12	inconclusive: 158 µM [inhibitor, single point]
Cc1cc(N2CCNC[C@@H]2C)ccc1N1CCN(Cc2ccccc2)[C@H](C)C1	inconclusive: 44.7 µM [inhibitor, partial curve, poor fit]
CC(C)OCC(O)CN1CCN(C(c2ccccc2)c2ccccc2)CC1 (stereo not given)	inconclusive: 3.55 µM [inhibitor, full curve, poor fit]
CNC(=O)[C@@H](c1ccccc1)N1CCC[C@H]1C(=O)N1CCOCC1	inconclusive: 25.1 µM [inhibitor, full curve]
Cc1ccccc1Nc1cc(C(=O)NCCc2ccc(Cl)cc2)c2ccccc2n1	inconclusive: 28.2 µM [inhibitor, partial curve, poor fit]
CCc1cc(C(=O)Nc2nc(-c3ccccn3)cs2)sc1C	inactive
CC1CCN(c2cc(N)c(Cl)cc2[N+](=O)[O-])CC1	inconclusive: 31.6 µM [inhibitor, partial curve, poor fit]
Cc1ccc2c(CC(=O)N(Cc3ccc(Cl)cc3)Cc3ccco3)coc2c1	inconclusive: 50.1 µM [inhibitor, partial curve, poor fit]
COc1ccc(O)c(/C=C2/SC(=S)N(Cc3ccccc3)C2=O)c1	inactive
COc1ccc2ccc(OCc3nc(C(=O)N4CC(N5CCCCC5)C4)co3)cc2c1	inconclusive: 44.7 µM [inhibitor, partial curve]
COc1cccc(NC(=O)CN(C)C(=O)/C=C/c2ccc3ccccc3n2)c1	inconclusive: 35.5 µM [inhibitor, partial curve, poor fit]
CC(=O)c1ccc(NS(=O)(=O)c2ccc(N)cc2)cc1	inactive

Structure (SMILES)	Potency
O=C(CCc1ncc(-c2ccccc2)o1)Nc1ccc(OCC(F)(F)F)cc1	inactive
CCCc1ccc(S(=O)(=O)NCCc2cccc3cccnc23)cc1	inconclusive: 44.7 µM [inhibitor, partial curve, poor fit]
O=C(COC(=O)c1cc([N+](=O)[O-])ccc1N1CCOCC1)NCc1ccc(F)cc1	inconclusive: 28.2 µM [inhibitor, partial curve, poor fit]
O=S(=O)(Nc1cccc2nsnc12)c1ccccc1	inactive
CCCNC(C(=O)O)C(C)C (stereo not given)	inconclusive: 5.62 µM [inhibitor, full curve, poor fit]
COc1ccc(C(=O)Nc2ccc3c(c2)CN(Cc2cc(F)cc(F)c2)C(=O)C(C)O3)cc1 (stereo not given)	inconclusive: 28.2 µM [inhibitor, full curve]
C=CCNC(=S)NNC(N)=S	active: 8.91 µM
NCCCC[C@@H]1NC(=O)c2cc([N+](=O)[O-])cc(I)c2SC[C@@H](C(N)=O)NC(=O)[C@H](CCC(N)=O)NC1=O	inconclusive: 35.5 µM [inhibitor, partial curve, poor fit]
Cc1ccc2nc(-c3ccc(O)c(O)c3)cn2c1	active: 17.8 µM
COc1ccc(-c2csc(Nc3ccccc3OC)n2)cc1	inconclusive: 12.6 µM [inhibitor, full curve]
COc1cccc(N2CC3(COCCN(C(=O)c4ccc(OC)c(OC)c4)C3)C2)c1	inconclusive: 50.1 µM [inhibitor, partial curve, poor fit]
Cn1ncc(CN2CC[C@@H]3[C@@H](CCC(=O)N3CCCN)C2)c1C1CC1	inconclusive: 17.8 µM [inhibitor, full curve, poor fit]
O=C(c1ccccc1)c1coc2ccc(O)c(Cl)c12	inconclusive: 100 µM [inhibitor, single point]
CC(C)n1cc(CN2CCC(C(=O)Nc3cccc(-c4cccc(Cl)c4)c3)CC2)cn1	inconclusive: 112 µM [inhibitor, partial curve, poor fit]
CC(NC(=O)NNC(N)=S)(C(F)(F)F)C(F)(F)F	inconclusive: 5.01 µM [inhibitor, full curve]
Cc1ccc(Cl)cc1N1CCN(CCCNC(=O)c2nnc(Cc3cccc(Cl)c3)o2)CC1	inconclusive: 112 µM [inhibitor, partial curve, poor fit]
Cn1nnnc1NC(=O)c1ccccc1Cl	inconclusive: 3.98 µM [inhibitor, full curve, poor fit]
Cc1cc(C)cc(Cn2c3ccc(NC(=S)NCc4ccccc4F)cc3c(=O)n2C)c1	inconclusive: 44.7 µM [inhibitor, partial curve, poor fit]
O=C(NC(=S)Nc1ccccc1[N+](=O)[O-])c1ccco1	inconclusive: 50.1 µM [inhibitor, partial curve, poor fit]
N#CNC(=Nc1cccc(C(F)(F)F)c1)SCc1ccc(C(=O)O)cc1	inconclusive: 35.5 µM [inhibitor, single point]

An excerpt of these results, as labelled records.
O=C(c1ccccc1)c1coc2ccc(O)c(Cl)c12
  Potency: inconclusive: 100 µM [inhibitor, single point]
CC(NC(=O)NNC(N)=S)(C(F)(F)F)C(F)(F)F
  Potency: inconclusive: 5.01 µM [inhibitor, full curve]
